Experimental data: patent US20260078197A1

The binders below were run against His-tagged monkey TFR1 protein (monkey (Macaca fascicularis)) (assay: SPR, Biacore 8K).

Binder | binding
23B8 (antibody, V domains shown) VH: QVTLKESGGGLVKPGGSLRLSCAASGFPFSNAWMNWVRQAPGKGLEWVGHIKSKTDGGTTDYAAPVKGRFTISRDDSKNMVFLQMNSLKTEDTAVYYCTTDRAYCGGDCSHYYYHDLDVWGQGTTVTVSS | binds
24A1 (antibody, human IgG1, V domains shown) VH: EVQLVESGGGLVQPGGSLRLTCAASGFTFSSYAMSWVRQAPGKGLERVSEISGSGSSTNYADSVKGRFTISRDNSKNTLYLQMNSLRAEDTAVYYCAKDDSSGWAFNIWDQGTVVTVSS | binds
24G5 (antibody, human IgG1, V domains shown) VH: QLQLQESGGGLVQPGGSLRLTCAASGFTFSSFAMSWVRQAPGKGLERVSEISDSGGNTYYADSVKGRFTISRDNSKNTLYLQMNSLRAEDTAVYYCAKDDSSGWAFNIWDQGTVVTVSS | binds

No constants are given. Whether binding was seen depends on the method and setting. A result given as binding can be weak or reduced; the word gives no strength.
